Experimental data as given in patent publication US8592161B2, “Mutational profiles in HIV-1 protease correlated with phenotypic drug resistance” (Janssen R&D Ireland, priority 2002, dated 2013).
At least one read-out could not be matched to a standard name with certainty.

Tested on: HIV-1/LAI
Test: In vitro antiviral activity in acutely infected MT4 cells, wild type
Assay type: cell-based
Method: Determination of the antiviral activity of a compound was done as described in Pauwels R. et al. (J Virol Methods 1988; 20(4):309-21). Various concentrations of the test compounds were brought into each well of a flat-bottom microtiter plate. Subsequently, HIV and MT4 cells were added to a final concentration of 200-250 50% cell culture infectious doses (CCID50)/well and 30,000 cells/well, respectively. After 5 days of incubation (37° C., 5% CO2), the cytopathic effect of the replicating virus was determined by the tetrazolium colorimetric MTT method. The dose protecting 50% of the cells from virus cytopathic effect was defined as the EC50, while the dose achieving 90% protection was defined as the EC90.
MT4-LTR-EGFP cells were infected at a multiplicity of infection (MOI) of 0.01 to 0.001 CCID50/cell in the presence of inhibitor. The starting concentration of the inhibitor was two to tee times the EC50, a suboptimal concentration. The cultures were sub-cultivated and scored microscopically on virus-induced fluorescence and cytopathicity every 3-4 days. The cultures were sub-cultivated in the presence of the same compound concentration until signs of virus replication were observed. The escaping virus was further cultivated in the presence of the same inhibitor concentration in order to enrich the population in resistant variants. If full virus breakthrough was observed the supernatant was collected and stored (new virus strain). Afterwards, the same virus was challenged with a higher compound concentration in order to select variants able to grow in the presence of as high as possible inhibitor concentrations. From the new viruses, a virus stock was grown in the absence of inhibitor.
In vitro drug selection experiments starting from wild-type HIV-1 under pressure of compound 1, compound 2, and Nelfinavir (NFV) have been performed. Tables 1, 2, 3, 4, and 5 show the genotypic and phenotypic characterization of the selected strains.

Measured: median FC (fold change in EC50 as compared to wild type)

CC(C)CN(C[C@@H](O)[C@H](Cc1ccccc1)NC(=O)O[C@H]1CCOC1)S(=O)(=O)c1ccc(N)cc1 [Amprenavir]
1: Table 1, wild-type HIV/LAI | Table 2, wild-type HIV-1/LAI | Table 3, wild-type HIV-1/LAI | Table 4, wild-type HIV-1/LAI | Table 5, wild-type HIV-1/LAI

CC(C)CN(C[C@@H](O)[C@H](Cc1ccccc1)NC(=O)O[C@H]1CO[C@H]2OCC[C@H]21)S(=O)(=O)c1ccc2nc(NCCN3CCCC3)sc2c1 [Compound 2]
1: Table 3, wild-type HIV-1/LAI

CC(C)(C)NC(=O)[C@@H]1CN(Cc2cccnc2)CCN1C[C@@H](O)C[C@@H](Cc1ccccc1)C(=O)N[C@H]1c2ccccc2C[C@H]1O [Indinavir]
1: Table 1, wild-type HIV/LAI | Table 2, wild-type HIV-1/LAI | Table 3, wild-type HIV-1/LAI | Table 4, wild-type HIV-1/LAI | Table 5, wild-type HIV-1/LAI

Cc1c(O)cccc1C(=O)N[C@@H](CSc1ccccc1)[C@H](O)CN1C[C@H]2CCCC[C@H]2C[C@H]1C(=O)NC(C)(C)C [Nelfinavir]
1: Table 1, wild-type HIV/LAI | Table 2, wild-type HIV-1/LAI | Table 3, wild-type HIV-1/LAI | Table 4, wild-type HIV-1/LAI | Table 5, wild-type HIV-1/LAI

CC(C)(C)NC(=O)[C@@H]1C[C@@H]2CCCC[C@@H]2CN1C[C@@H](O)[C@H](Cc1ccccc1)NC(=O)[C@H](CC(N)=O)NC(=O)c1ccc2ccccc2n1 [Saquinavir]
1: Table 1, wild-type HIV/LAI | Table 2, wild-type HIV-1/LAI | Table 3, wild-type HIV-1/LAI | Table 4, wild-type HIV-1/LAI | Table 5, wild-type HIV-1/LAI
